Experimental data published in PMC7478007.
No constants are given. Whether binding was seen depends on the method and setting. Binding calls can cover weak binding; strength is not graded here. For some assays here: In cells and extracts the contact can be indirect.

Assays:
[1] = biological target: ETS-related gene 1 (ERG1), endogenous (human (endogenous in MCF-7)); experiment: co-IP; endogenous proteins; MCF-7 cells treated with TGF-β for 24 h, nuclear lysates; immunoprecipitation with indicated antibodies, Western blot
[2] = biological target: ETS-related gene 1 (ERG1), endogenous (human (endogenous in MCF-7)); experiment: Re-ChIP; MCF-7 and T47D cells treated with or without TGF-β for 24 h; formaldehyde cross-linked chromatin, sequential immunoprecipitation with indicated antibodies, RhoJ promoter amplified

B1: Megakaryocytic leukemia 1 (MKL1), endogenous (protein, UniProt Q969V6 1-931)
chain: MPPLKSPAAFHEQRRSLERARTEDYLKRKIRSRPERSELVRMHILEETSAEPSLQAKQLKLKRARLADDLNEKIAQRPGPMELVEKNILPVESSLKEAIIVGQVNYPKVADSSSFDEDSSDALSPEQPASHESQGSVPSPLEARVSEPLLSATSASPTQVVSQLPMGRDSREMLFLAEQPPLPPPPLLPPSLTNGTTIPTAKSTPTLIKQSQPKSASEKSQRSKKAKELKPKVKKLKYHQYIPPDQKQDRGAPPMDSSYAKILQQQQLFLQLQILNQQQQQHHNYQAILPAPPKSAGEALGSSGTPPVRSLSTTNSSSSSGAPGPCGLARQNSTSLTGKPGALPANLDDMKVAELKQELKLRSLPVSGTKTELIERLRAYQDQISPVPGAPKAPAATSILHKAGEVVVAFPAARLSTGPALVAAGLAPAEVVVATVASSGVVKFGSTGSTPPVSPTPSERSLLSTGDENSTPGDTFGEMVTSPLTQLTLQASPLQILVKEEGPRAGSCCLSPGGRAELEGRDKDQMLQEKDKQIEALTRMLRQKQQLVERLKLQLEQEKRAQQPAPAPAPLGTPVKQENSFSSCQLSQQPLGPAHPFNPSLAAPATNHIDPCAVAPGPPSVVVKQEALQPEPEPVPAPQLLLGPQGPSLIKGVAPPTLITDSTGTHLVLTVTNKNADSPGLSSGSPQQPSSQPGSPAPAPSAQMDLEHPLQPLFGTPTSLLKKEPPGYEEAMSQQPKQQENGSSSQQMDDLFDILIQSGEISADFKEPPSLPGKEKPSPKTVCGSPLAAQPSPSAELPQAAPPPPGSPSLPGRLEDFLESSTGLPLLTSGHDGPEPLSLIDDLHSQMLSSTAILDHPPSPMDTSELHFVPEPSSTMGLDLADGHLDSMDWLELSSGGPVLSLAPLSTTAPSLFSTDFLDGHDLQLHWDSCL
Question: What does the source list for B1?
Answer: binding [1]: binds; binding [2]: binds
